Our source for the binding values is doi:10.1101/2025.08.21.671625, “α-catenin phosphorylation is actomyosin-sensitive and required for epithelial barrier functions through Afadin” (bioRxiv, 2025).

Sequences of proteins named here, by UniProt entry; tags and fusion partners are left off.
UniProt P35221: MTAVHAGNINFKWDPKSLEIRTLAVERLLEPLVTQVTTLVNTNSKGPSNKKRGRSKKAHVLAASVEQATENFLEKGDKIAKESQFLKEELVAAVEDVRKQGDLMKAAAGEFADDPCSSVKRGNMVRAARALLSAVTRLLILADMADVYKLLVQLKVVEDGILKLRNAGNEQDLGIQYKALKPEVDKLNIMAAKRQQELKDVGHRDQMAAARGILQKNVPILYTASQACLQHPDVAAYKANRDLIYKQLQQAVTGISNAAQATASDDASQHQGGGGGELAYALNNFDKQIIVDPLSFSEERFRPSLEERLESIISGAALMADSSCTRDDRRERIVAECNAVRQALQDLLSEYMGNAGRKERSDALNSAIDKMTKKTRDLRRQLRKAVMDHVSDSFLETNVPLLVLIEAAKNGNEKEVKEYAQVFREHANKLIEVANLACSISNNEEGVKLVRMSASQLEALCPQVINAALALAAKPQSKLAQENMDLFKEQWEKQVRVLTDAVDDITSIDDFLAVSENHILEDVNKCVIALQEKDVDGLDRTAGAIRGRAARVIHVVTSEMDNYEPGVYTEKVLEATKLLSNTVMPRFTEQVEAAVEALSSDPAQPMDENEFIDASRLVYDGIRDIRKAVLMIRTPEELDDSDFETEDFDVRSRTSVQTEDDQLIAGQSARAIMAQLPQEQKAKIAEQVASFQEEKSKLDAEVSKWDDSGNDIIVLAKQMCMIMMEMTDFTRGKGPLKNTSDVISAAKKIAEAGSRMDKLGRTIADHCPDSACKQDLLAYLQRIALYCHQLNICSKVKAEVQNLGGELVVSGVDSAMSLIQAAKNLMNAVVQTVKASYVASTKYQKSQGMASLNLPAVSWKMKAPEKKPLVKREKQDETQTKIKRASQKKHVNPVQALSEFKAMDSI

This test concerns the target T1, GST-Afadin-Coiled-coil α-cat binding region (Afadin-CC-ABR; amino acids 1391–1449) (rat).
T1 sequence: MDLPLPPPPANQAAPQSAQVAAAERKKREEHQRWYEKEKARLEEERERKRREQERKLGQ
The experiment in a line: pull-down; GST-Afdn-CC-ABR (or GST control) pre-bound to glutathione resin, mixed with α-cat prey proteins, washed, eluted with free glutathione; interaction strength assessed by Coomassie staining; both purified.

Results are given in words; binding and its absence hold for the method and conditions named. Some binding calls cover weakened binding; strength is not graded here. Tags and fused reporters may be left off the sequences shown.

For “full length αE-cat WT (from UniProt P35221 1-906)”, the binding entry is listed as “binds weakly”.
